Results on 60 compounds are retold here after PubChem BioAssay AID2685 (National Center for Advancing Translational Sciences (NCATS), 2010).

The other results are listed elsewhere or left out. Shown are side measurements of this screen, not its main read-out; they come without a call. Most of these compounds were active or inconclusive in the main read-out, so they are no random draw. Words in brackets tell the shape of the fitted curve; partial curves, single points and poor fits give uncertain potencies.

The assay is described as follows: qHTS Assay for Lipid Storage Modulators in Drosophila S3 Cells.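 For cell number change: cells counted by Cell Tracker Red CMTPX staining in the red channel.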 Particulars: BODIPY lipid droplet fluorescence, 18-24 h; for cell number change: measured here: cell count max response, cells fed with added oleic acid. A digest of the protocol: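 Drosophila S3 cells got compounds at several concentrations plus oleic acid (400 uM solution). Laser-scanning cytometry with 488 nm excitation read lipid droplets at 500-530 nm and cells at 575-640 nm. Percent activity was relative to 20 uM Triacsin C.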
Background: qHTS replaces the single test concentration by a dilution series.

Setting [1] is: measured here: cell number channel AC50, cells fed with added oleic acid.
Setting [2] is: measured here: lipid fluorescence (Fed channel) AC50, cells fed with added oleic acid.

By AC50 is commonly meant the concentration giving half of the maximal activity seen. A low value points to activity at low concentration. Take `COCCOC(=O)C1=C(C)NC(=S)NC1/C=C/c1ccccc1` (stereo not given): the cell number change turned out to be 76.8%. The AC50 under setting [1] was 29.1 µM [rising, single point]. In addition, the AC50 under setting [2] is 29.1 µM [rising, single point].

As for `O=C1c2ccccc2C(=O)N1CCn1c(=O)oc2ccccc21`, the cell number change came out at 76.5%. For the same compound, the AC50 under setting [1] was 0.259 µM [rising, full curve]. Also, under setting [2], the AC50 is 0.116 µM [rising, full curve, poor fit].

`O=C(NCCc1ccccc1)c1nc2ncccn2n1`: the AC50 is 6.51 µM [falling, single point] under setting [1] and 6.51 µM [rising, single point] under setting [2].

On to `CN1CCN(C(=S)SCc2nc(N)nc(Nc3ccc(F)cc3)n2)CC1`, for which the cell number change worked out at 2.02%. Moreover, the AC50 under setting [2] was 9.2 µM [falling, single point].

As to `CN(C)c1ccc(NC(=S)c2ccccn2)cc1`, the cell number change is -50.5%. Besides, under setting [1], the AC50 was 29.1 µM [falling, single point]. For the same compound, the concentration at half-maximal activity (AC50) under setting [2] is 18.4 µM [falling, partial curve, poor fit].

`O=C(N/N=C/c1ccco1)c1cc(-c2cccc(Br)c2)nc2ccccc12`: the cell number change was found to be 17.2%. Moreover, the half-maximal activity concentration (AC50) under setting [2] is 2.31 µM [falling, partial curve, poor fit].

With `O=C(/C=C/c1ccccc1O)c1ccc(Cl)cc1`, the cell number change was -28.1%. Moreover, under setting [2], the AC50 is 20.6 µM [falling, single point].

In the case of `Cc1ccnc(NC(=O)c2cnc(Cl)c(Cl)c2)c1`, the cell number change is -15.2%. In addition, the AC50 under setting [2] was 29.1 µM [falling, single point].

For `c1ccc(NC2=NCCN2CC2CCCC2)cc1`, the cell number change was determined as 18.1%.

For the compound `Cn1c(SCC(=O)NCc2ccc(F)cc2)nc2ccccc21`, the cell number change was -31.8%. The AC50 under setting [1] was 29.1 µM [falling, single point]. For the same compound, under setting [2], the AC50 is 29.1 µM [falling, single point].

As to `Cc1ccn2cc(C(=O)Nc3nnc(C)s3)nc2c1`, the cell number change came to 1.47%.

With `CC1CCN(C(=O)CS(=O)(=O)Cc2ccccc2)CC1`, the AC50 under setting [2] is 0.58 µM [rising, single point].

For `COc1ccc(CN(C)C(=O)CCN=C2NS(=O)(=O)c3ccccc32)c(OC)c1`, the cell number change is -6.95%. Moreover, under setting [1], the concentration at half-maximal activity (AC50) was 1.03 µM [falling, full curve]. Under setting [2], the AC50 was 1.16 µM [falling, full curve].

Regarding `Fc1ccc(CN2CCN(c3ncccn3)CC2)cc1`, the cell number change is 7.01%.

Turning to `O=C(N/C(=C/c1ccc(F)cc1)C(=O)N1CCOCC1)c1ccccc1`, the cell number change worked out at 10.5%. For the same compound, the AC50 under setting [2] was 29.1 µM [rising, single point].

On to `CC1=CC(=O)C=C(C)C1=NOc1ccc([N+](=O)[O-])cc1`, for which the cell number change turned out to be 40.7%. Under setting [1], the half-maximal activity concentration (AC50) was 7.31 µM [rising, partial curve].

Turning to `Cc1ccc(N(CC(=O)NC2CCCC2)C(=O)c2nsc(Cl)c2Cl)cc1`, the cell number change was -12.7%. The AC50 under setting [2] is 6.51 µM [rising, single point].

As for `CCC(C)(C)NC(=O)C(c1ccc(F)cc1)N(CCOC)C(=O)CCC(=O)Nc1nccs1` (stereo not given), the AC50 under setting [2] is 18.4 µM [falling, partial curve].

Regarding `Cn1ncc(Br)c1C(=O)NC1CCCCCC1`, the cell number change is -6.8%.

Consider `CCc1ccc(NC(=O)CSc2nnnn2-c2cccnc2)cc1`, for which the cell number change is -2.21%. The AC50 under setting [2] is 29.1 µM [rising, single point].

Regarding `COc1ccc(C2=NN(C)C(=NCc3ccccc3)SC2)cc1`, the cell number change came to 2.38%. In addition, the AC50 under setting [1] was 2.91 µM [rising, single point].

As for `CCCOC(=O)Nc1ccc(S(=O)(=O)Nn2cnnc2)cc1`, the cell number change was -1.17%. In addition, under setting [2], the AC50 is 6.51 µM [rising, partial curve, poor fit].

With `C=CCNC(=O)CN(c1ccc(F)c(Cl)c1)S(C)(=O)=O`, the cell number change is -5.93%. The AC50 under setting [2] is 0.731 µM [falling, single point].

Turning to `COC(=O)c1cc(CNC(=O)C(C)NS(=O)(=O)c2ccc(C)c(C)c2)ccc1OC` (stereo not given), the AC50 under setting [2] is 0.58 µM [falling, single point].

Consider `O=c1cc(O)c2c(=O)n(-c3ccccc3)c3c(c2o1)CCCCC3`, for which the cell number change amounted to 33.3%. Further, the AC50 under setting [1] is 29.1 µM [rising, single point].

Regarding `COc1ccccc1NC(=O)c1oc2ccccc2c1NC(=O)C1CC1`, the cell number change was 90.4%. Under setting [1], the AC50 is 29.1 µM [rising, single point].

On to `COc1ccc2cc(CCNC(=O)c3ccco3)c(=O)[nH]c2c1`, for which the cell number change was -39.3%. Under setting [1], the AC50 was 35.5 µM [falling, single point].

In the case of `CC1=CC(C)(C)Nc2ccc(OS(=O)(=O)c3ccc(C)cc3)cc21`, the AC50 under setting [2] is 16.4 µM [falling, partial curve, poor fit].

Turning to `CSc1nc(N)nc(SCC(=O)C(C)(C)C)c1C#N`, the cell number change stood at 150%. Besides, the AC50 under setting [1] was 14.6 µM [rising, partial curve]. Besides, the AC50 under setting [2] was 0.58 µM [falling, single point].

Consider `CN(C)CC(=O)Nc1ccc(Oc2ccc(Cl)cc2)cc1`, for which the cell number change was -39%. The AC50 under setting [1] is 4.11 µM [falling, full curve, poor fit].

Turning to `CCOC(=O)CCN(Cc1cccs1)S(=O)(=O)c1ccc(Cl)cc1`, the cell number change turned out to be 12.9%. The AC50 under setting [2] was 0.651 µM [rising, full curve, poor fit].

On to `O=C(Nc1ccc(Br)cc1)c1ccc(Br)c(S(=O)(=O)Nc2cccnc2)c1`, for which the cell number change was found to be 16.4%. For the same compound, the AC50 under setting [2] is 6.51 µM [rising, single point].

Turning to `O=C1SC(c2ccccc2)=N/C1=C/c1ccco1`, the cell number change worked out at 0.805%. Further, the AC50 under setting [2] is 0.651 µM [falling, full curve, poor fit].

Consider `COC(=O)c1cn(-c2ccccc2)nc1C(=O)OC`, for which, under setting [1], the AC50 is 6.51 µM [rising, single point].

Turning to `Cc1cc(NC(=O)COC(=O)Cn2c(C)csc2=O)ccc1Br`, the cell number change amounted to 36.2%. Under setting [1], the AC50 was 14.6 µM [rising, partial curve, poor fit]. Moreover, the AC50 under setting [2] was 20.6 µM [rising, single point].

As to `COc1ccc(NC(=S)NC(=O)/C=C/c2ccco2)c(OC)c1`, the cell number change was found to be 5.11%.

On to `Cc1ccc(C(C)C)c(OCc2ccc(-c3nnco3)cc2)c1`, for which the cell number change was -49.9%. Further, the AC50 under setting [1] is 29.1 µM [falling, single point].

With `Cc1ccc(C(c2cc(Cl)c3cccnc3c2O)N2CCN(C)CC2)cc1` (stereo not given), the cell number change is -12.4%.

As for `COc1ccc(Nc2nnc(C)c(=O)[nH]2)cc1`, the cell number change was -19.5%. The AC50 under setting [1] is 0.00517 µM [falling, full curve, poor fit]. Also, the AC50 under setting [2] was 6.51 µM [falling, single point].

On to `CCOc1ccc(CCNC(=O)C2CC(=O)N(CCc3ccc(OC)c(OC)c3)C2)cc1OCC` (stereo not given), for which, under setting [1], the AC50 was 6.51 µM [falling, single point].

Regarding `CN1C(=O)C(O)(C2COC(C)(C)CC2=O)c2ccccc21` (stereo not given), the cell number change was determined as 0.0764%.

With `Cc1ccccc1OCC(=O)N/N=C/c1ccncc1`, the cell number change is -15%. Also, under setting [2], the AC50 is 29.1 µM [rising, partial curve, poor fit].

Consider `CC(=O)OCC1=C(C(=O)O)N2C(=O)C(NC(=O)COc3ccc(F)cc3)C2SC1` (stereo not given), for which the cell number change was -0.962%. Under setting [2], the concentration at half-maximal activity (AC50) is 0.00461 µM [falling, full curve, poor fit].

Regarding `Cc1csc(=O)n1CC(=O)OCc1nnc(-c2ccccc2)o1`, the cell number change was -28.3%. Also, the half-maximal activity concentration (AC50) under setting [2] is 29.1 µM [falling, single point].

For `CC1(C(=O)OCC(=O)NC(=O)c2ccccc2)CC1(Cl)Cl` (stereo not given), the cell number change is -45.8%. Further, the AC50 under setting [1] was 20.6 µM [falling, single point].

In the case of `O=C1NCCCC1C(=O)N/N=C/c1ccc(Cl)cc1` (stereo not given), the cell number change was -1.25%. Moreover, the AC50 under setting [2] is 6.51 µM [falling, single point].

As for `COc1ccc(COC(=O)C2=C(C)NC(=O)NC2c2ccccc2F)cc1` (stereo not given), the cell number change was -12.9%. Moreover, under setting [2], the AC50 is 23.1 µM [falling, single point].

Consider `Cn1c(=O)c(Nc2ccc(Cl)cc2)c2c3c(cccc31)C(=O)c1ccccc1-2`, for which the cell number change turned out to be 9.25%. The AC50 under setting [2] was 20.6 µM [falling, single point].

`O=C(COC(=O)c1cc(-c2cccs2)nc2ccccc12)NCc1ccco1`: the cell number change was -36.7%. The half-maximal activity concentration (AC50) under setting [1] was 7.31 µM [falling, partial curve, poor fit]. The AC50 under setting [2] was 9.2 µM [falling, partial curve, poor fit].

Turning to `Cc1cccc(Oc2nc(-c3ccncc3)nc3ccccc23)c1`, the cell number change was -34.7%. The AC50 under setting [1] is 29.1 µM [falling, single point]. For the same compound, the AC50 under setting [2] was 29.1 µM [falling, single point].

Turning to `COc1ccccc1C(=O)Nc1cc(C)on1`, the cell number change is 30.5%. In addition, the AC50 under setting [1] was 14.6 µM [rising, partial curve, poor fit].

As to `COc1cc(OC)cc(C(=O)NC(=S)Nc2ccc3[nH]c(=O)[nH]c3c2)c1`, the cell number change came out at 61.3%. For the same compound, the AC50 under setting [1] was 18.4 µM [rising, partial curve].

Regarding `Cc1ccc(OCc2cn3cccnc3n2)cc1`, the cell number change was found to be 4.89%. The AC50 under setting [2] was 29.1 µM [rising, single point].

For the compound `CCCCN(CCCC)S(=O)(=O)c1ccc(NC(=O)c2ccc([N+](=O)[O-])cc2Cl)cc1`, the cell number change is -18.4%. Also, under setting [2], the AC50 was 0.58 µM [falling, partial curve, poor fit].

As for `COc1cc(CC(=O)OCc2ccccc2F)cc(OC)c1OC`, the cell number change is -24.8%. The AC50 under setting [1] was 0.231 µM [falling, full curve, poor fit].

For the compound `O=C(COc1ccc2ccc(=O)oc2c1)Nc1nccs1`, the cell number change was -44.9%. The half-maximal activity concentration (AC50) under setting [1] is 18.4 µM [falling, partial curve, poor fit]. Besides, the AC50 under setting [2] is 29.1 µM [falling, single point].

Regarding `Cc1ccc(/C=C/C(=O)Nc2cc(=O)n(C)c(=O)n2C)o1`, the cell number change stood at 36%. The AC50 under setting [1] was 20.6 µM [rising, partial curve]. For the same compound, under setting [2], the AC50 is 29.1 µM [rising, single point].

Turning to `COc1ccccc1NC(=O)Cn1cnc2sc(C)c(S(=O)(=O)N3CCCCC3)c2c1=O`, the cell number change is 17%. Besides, the AC50 under setting [2] is 8.2 µM [rising, partial curve].

Regarding `O=C(Nc1nncs1)c1ccc(Br)c(S(=O)(=O)N2CCCC2)c1`, the AC50 by setting is: under setting [1], 0.58 µM [falling, single point]; under setting [2], 0.58 µM [falling, single point].

Regarding `CCC(CC)NC(=O)c1cccc(NC(=O)C(C)C)c1`, the cell number change stood at 3.21%. For the same compound, the AC50 under setting [1] is 0.13 µM [rising, full curve, poor fit]. Also, the AC50 under setting [2] was 6.51 µM [rising, partial curve, poor fit].
